Assay results taken from patent publication US11524945B2, “Compounds for treating ILK-mediated diseases” (The Cleveland Clinic Foundation, priority 2018, dated 2022).

Tested on: Caco2 Cell Monolayer
Test: Assessment of Caco2 cell monolayer integrity
Assay type: in vitro ADME
Details: for LY LeakageA-B (%) / TEERA-B (Ω · cm^2): A-B; for LY LeakageB-A (%) / TEERB-A (Ω · cm^2): B-A

Row | SMILES | LY LeakageA-B (%) | TEERA-B (Ω · cm^2) | LY LeakageB-A (%) | TEERB-A (Ω · cm^2)
1 | CC(C)NCC(O)COc1cccc2ccccc12 (stereo not shown) [Propranolol] | 0.32% | 353 Ω · cm^2 | 0.29% | 349 Ω · cm^2
2 | C[C@H]1O[C@@H](O[C@H]2[C@@H](O)C[C@H](O[C@H]3[C@@H](O)C[C@H](O[C@H]4CC[C@@]5(C)[C@H](CC[C@@H]6[C@@H]5C[C@@H](O)[C@]5(C)[C@@H](C7=CC(=O)OC7)CC[C@]65O)C4)O[C@@H]3C)O[C@@H]2C)C[C@H](O)[C@@H]1O [Digoxin] | 0.23% | 520 Ω · cm^2 | 0.20% | 484 Ω · cm^2
3 | C#Cc1cc(Nc2ncnc3cc(OCCOC)ccc23)cc(OCCOCC)c1 [Compound 1] | 0.24% | 529 Ω · cm^2 | 0.18% | 547 Ω · cm^2
4 | COc1cc2nc(N3CCN(C(=O)c4ccco4)CC3)nc(N)c2cc1OC [Prazosin] | 0.17% | 551 Ω · cm^2 | 0.26% | 556 Ω · cm^2
